Measurements from PubChem BioAssay AID1259354 (Paczesny and Yang Labs, IUPUI and University of Michigan, 2018).
Screen size: about 78,000 compounds; about 1,800 (2.3%) were called active. Inconclusive means that the source gave no clear call. Such entries were picked first, then a sample of the others. No stated cut-off is given here; in the data, active means inhibition above about 30%; inconclusive means mostly about 10% to 28%; inactive means weaker than that.

Sequences of proteins named here, by UniProt entry; tags and fusion partners are left off. A change or cut given only in a name is not applied to a line headed by its entry.
UniProt Q01638: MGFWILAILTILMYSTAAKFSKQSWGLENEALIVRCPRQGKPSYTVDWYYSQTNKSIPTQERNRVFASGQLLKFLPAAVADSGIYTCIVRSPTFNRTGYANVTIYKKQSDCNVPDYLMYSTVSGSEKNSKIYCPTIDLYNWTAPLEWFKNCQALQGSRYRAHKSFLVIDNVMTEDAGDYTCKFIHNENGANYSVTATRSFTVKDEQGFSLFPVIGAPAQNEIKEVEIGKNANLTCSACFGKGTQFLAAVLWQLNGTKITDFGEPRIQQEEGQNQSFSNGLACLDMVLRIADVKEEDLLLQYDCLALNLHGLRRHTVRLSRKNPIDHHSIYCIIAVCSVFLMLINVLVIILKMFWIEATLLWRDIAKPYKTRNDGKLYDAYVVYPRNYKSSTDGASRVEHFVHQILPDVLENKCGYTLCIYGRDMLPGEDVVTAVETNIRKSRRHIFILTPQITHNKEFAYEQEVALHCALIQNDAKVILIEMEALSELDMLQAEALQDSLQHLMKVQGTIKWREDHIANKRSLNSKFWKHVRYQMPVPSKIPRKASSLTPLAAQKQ

Target: Interleukin-1 receptor-like 1 (Homo sapiens) (UniProt Q01638)
Experiment: blocks human ST2 binding to IL-33, primary screen, biochemical, AlphaLISA (AID 1259354)
Settings: AlphaLISA ST2-Fc/biotin-IL-33 interaction, 1 h; at 17 µM, hits give high values

SMILES | inhibition
CCN1CCN(C/C=C/c2ccccc2)CC1 | inconclusive: 11%
Clc1cccc(C=Nc2ccc(N3CCOCC3)cc2)c1Cl | inconclusive: 20%
COc1ccc(NC(=O)C2CC(=O)N(C)C(=Nc3ccc(Cl)c(Cl)c3)S2)cc1 (stereo not given) | inactive
Cc1cccc(N=Cc2nc(-c3ccccc3)oc2O)n1 | inconclusive: 16%
CCOc1ccc(S(=O)(=O)N=C2C=CC(=O)c3ccccc32)cc1 | active: 49%
CCN(Cc1nc(COC)no1)C(=O)CC1=CCCCC1 | inactive
Cn1c(SCC(=O)Nc2cccc(Cl)c2)nc2c([nH]c3ccccc32)c1=O | inactive
CCOc1ccccc1-c1nc(C(N)=O)c2c(n1)n(-c1ccc(C)c(C)c1)c(=O)n2CC | inactive
Cc1ccc(C(=O)Nc2cc(C)c(O)cc2C)cc1 | inconclusive: 13%
N#Cc1nc(COc2ccc(Br)cc2)oc1N1CCC(C(N)=O)CC1 | inconclusive: 16%
COC[C@H]1CCCN1C(=O)C[C@@H]1O[C@H](CNC(=O)c2ccccc2)[C@@H](O)[C@H]1O | inconclusive: 11%
O=c1cc(CCn2cnc(-c3ccccc3)c2-c2cccc3cccnc23)nc[nH]1 | inconclusive: 19%
CC1=C(C(=O)Nc2cccnc2)C(c2cccc(OCc3ccccc3)c2)n2nnnc2N1 (stereo not given) | inconclusive: 12%
CCOC(=O)CN(C)C(=O)CC(c1ccccc1)c1ccccc1C (stereo not given) | inactive
O=C(c1ccccc1-c1ncc[nH]1)N1CCCC(C(=O)N2CCCC2)C1 (stereo not given) | inactive
CC1CN(Cc2nc3c(c(=O)[nH]c(=O)n3C)n2Cc2c(F)cccc2Cl)CC(C)O1 (stereo not given) | inconclusive: 11%
COc1ccc(-c2noc([C@@H]3C[C@H](NS(=O)(=O)c4cccs4)CN3C)n2)cc1 | active: 41%
CC1=CC[C@@H]2CN(c3cncc(C(=O)N4CCCC4)n3)C[C@@H]2C1 | inconclusive: 10%
NC1CC(=O)N(Cc2cccc3ccccc23)C1 (stereo not given) | inactive
COc1ccc2c(C)nc(Nc3nc(C)c(C)c(C)n3)nc2c1 | inconclusive: 20%
Cc1nn(CCO)cc1CN1CCC1c1ccc(F)cc1 (stereo not given) | inconclusive: 15%
CN1CCC2(CCC1=O)CCN(C(=O)c1cnc(-c3cccnc3)nc1)CC2 | inconclusive: 13%
CN(CC1CCN(CCc2ccc(Cl)cc2)CC1)C(=O)Cn1c(=O)oc2ccccc21 | inactive
CCOc1ccc(C(C)NC(=O)CCC(=O)O)cc1 (stereo not given) | inconclusive: 10%

SMILES | inhibition
CCOC(=O)C1=C(C)Nc2ncnn2C1c1ccccc1 (stereo not given) | inactive
CC1c2cccn2CCN1C(=O)c1cnc(CN2CCCC2)s1 (stereo not given) | inconclusive: 19%
O=c1c2c(nc(SCc3ccccc3)n1-c1ccc(F)cc1)CCS2 | inconclusive: 10%
COc1ccccc1/C=C(\C#N)c1nc(-c2ccc(OC)c(OC)c2)cs1 | inconclusive: 27%
CNS(=O)(=O)c1ccc(C)cc1 | inconclusive: 10%
O=C(c1ccc(Oc2ccccc2)o1)N1CCCn2cncc2C1 | inconclusive: 24%
Cc1nc2sc(C(c3ccccc3)N3CCN(c4ccc(F)cc4)CC3)c(O)n2n1 (stereo not given) | inconclusive: 10%
O=C(CCCOc1ccc(Cl)cc1Cl)N1CCCCC1 | inconclusive: 10%
CC(C)(C)c1ccnc(N[C@H]2CO[C@H]3[C@@H]2OC[C@@H]3NC(=O)Nc2cccc(C(F)(F)F)c2)n1 | inconclusive: 11%
CCN(CC)C(=O)CCC(=O)Nc1ccc2nc(N3CCOCC3)cc(C)c2c1 | inactive
COc1ccccc1C(=O)N1CCN=C1SCc1ccccc1C | inactive
Cn1c(CS(=O)(=O)c2ccc(Cl)cc2)c(C#N)c2ccccc21 | inconclusive: 15%
Cc1ccccc1S(=O)(=O)N1CCN(c2cc(-c3cccc(F)c3)ncn2)CC1 | inactive
O=C(O)CCC(=O)N1N=C(c2ccccc2)CC1c1ccc(Cl)cc1 (stereo not given) | inactive
Cc1cc(NN)nc(-c2ccccc2O)n1 | inconclusive: 25%
N#Cc1nc(COc2ccc(Br)cc2)oc1N1CCCC1 | active: 72%
COc1ccc(-c2noc([C@@H]3C[C@H](NS(=O)(=O)c4ccc(F)cc4)CN3C)n2)cc1 | inconclusive: 12%
CC(C)c1ccc(NC(=O)[C@@H]2C[C@@H]2c2ccccc2)cc1 | inactive
c1ccc(CCc2nnc3n2CCN(Cc2ccc4c(c2)Cc2ccccc2-4)CC3)cc1 | inconclusive: 11%
Cc1ccc(-n2c(SCC(=O)Nc3nnc(C)s3)nc3c(c2=O)SCC3)cc1 | inactive
Cc1ccc(-c2nnc([C@H]3CCN(c4ncccn4)C3)o2)cc1 | inconclusive: 18%
CSc1cccc(NS(=O)(=O)c2cccc3nsnc23)c1 | inconclusive: 12%
O=C(NCc1ccco1)Nc1ccc2nc(-c3ccco3)c(-c3ccco3)nc2c1 | inconclusive: 27%
CC1(C)OC(=O)C(=CN2CCCC2C(=O)O)C(=O)O1 (stereo not given) | inconclusive: 16%

SMILES | inhibition
COCCN(CCOC)CC[C@@H]1CC[C@H](O)[C@@H](C(=O)Nc2ccccc2)O1 | active: 38%
COc1ccc(NC(=O)N2Cc3[nH]cnc3C[C@H]2c2nc(-c3ccc4ccccc4c3)no2)cc1 | inconclusive: 19%
CCOc1ccc(N2C(=O)S/C(=C/c3cc(OC)c(OC)c(OC)c3)C2=O)cc1 | inconclusive: 27%
COc1ccc(/C=C2\SC(=O)N(CC(=O)NC(C)(C)C)C2=O)cc1OC | inconclusive: 11%
Cc1ccc([C@@H]2Nc3c(F)cccc3[C@@H]3C=CC[C@@H]32)cc1 | inactive
CCOC(=O)CC1(NC(=O)[C@@H]2C[C@@H](N)CN2)CCCCC1 | inactive
O=C(O)CCNC(=O)/C(=C/c1ccc2c(c1)OCO2)NC(=O)c1ccccc1Cl | inactive
CC(C(=O)N1CCCc2c1c(=O)oc1ccc(O)cc21)N1CCN(c2cccc(Cl)c2)CC1 (stereo not given) | inactive
CC(C)(C)n1nc2c(c1NC(=O)c1ccccc1F)CSC2 | inconclusive: 10%
CC1=C(C(=O)OCc2ccccc2)C(c2ccccc2)n2nnnc2N1 (stereo not given) | inactive
COc1ccc(/C=C/CN2CCCN(C(=O)C3CCC3)CC2)cc1 | inactive
CN1CCC(NC[C@H]2O[C@@H](CO)[C@@H](O)[C@@H]2N(C)Cc2ccccc2)CC1 | inconclusive: 18%
CC(=O)N1CCN(c2ncccc2CNS(=O)(=O)N2CCCC2)CC1 | inactive
COC(=O)c1c(C)oc2cc(Br)c(OC(=O)c3ccccc3C)cc12 | inactive
COc1ccccc1/C=C/C1=NC(=C\C(Cl)=C\c2ccccc2)/C(=O)O1 | inactive
COc1ccccc1-c1nnc([C@H]2CCN(Cc3ccc(F)c(F)c3)C2)o1 | inconclusive: 13%
COc1ccccc1C(=O)N(c1ccc(Br)cc1)C1C=CS(=O)(=O)C1 (stereo not given) | inactive
Cn1c(=O)oc2ccc(C(=O)N3CCC4(CCCNC4)C3)cc21 (stereo not given) | inactive
Cc1ccnc(CC(C)N(C)C(=O)C2CCCCC2)c1 (stereo not given) | inconclusive: 13%
CCCC(NC(=O)C1CCOCC1)c1ccccc1 (stereo not given) | inactive
Cc1cc(=O)oc(C)c1C(=O)NCC1COc2ccccc2O1 (stereo not given) | inconclusive: 10%
CCCC1=NS(=O)(=O)c2ccccc2N1 | inconclusive: 11%
CCN(CC)CCNC(=O)CN1C(=O)CC(C)(C)Sc2ccccc21 | inconclusive: 10%
CCOc1ccc(CN2CCN(c3nc(C)ccc3C(N)=O)CC2)cn1 | inconclusive: 10%

SMILES | inhibition
Cc1cccc(CN2C(=O)c3oc4ccccc4c3OCC2(C)C(=O)NC2CCCC2)c1 (stereo not given) | inactive
Cc1ccc(CN2CCC(CNC(=O)c3cccc(N)c3)C2)cc1C (stereo not given) | inconclusive: 22%
O=C(Cc1ccncc1)N1CCc2[nH]nc(-c3cccc4ccccc34)c2C1 | inconclusive: 28%
O=C(Nc1ccc(Oc2ccccc2)nc1)C1CCN(C(=O)C2CCCCO2)CC1 (stereo not given) | inconclusive: 16%
Cc1ccc(CSC2=NCCN2C(=O)c2ccco2)cc1 | inconclusive: 13%
Cn1c(=O)n(Cc2cccc(Cl)c2)c(=O)c2c1nc1n2CCN1c1ccccc1 | inconclusive: 11%
Cc1[nH]c2ccccc2c1C(C[N+](=O)[O-])c1ccc(F)cc1 (stereo not given) | inconclusive: 24%
CC(c1ccon1)N(C)C(=O)c1cccc2ccnn12 (stereo not given) | inconclusive: 11%
COc1cccc(C2C3=C(CCCC3=O)Nc3nc(SCc4ccccc4Cl)nn32)c1 (stereo not given) | inactive
Cc1c(C#N)c(N=CN(C)C)c(C(=O)c2ccccc2)n1-c1ccccc1 | inconclusive: 23%
Cc1ccc(C2CC(=O)C3=C(C2)Nc2ccccc2NC3c2cc3c(cc2Cl)OCO3)cc1 (stereo not given) | inconclusive: 11%
CCOc1ccc(-c2nc3cc(N)ccc3o2)cc1 | inconclusive: 24%
CCCCOc1ccc(S(=O)(=O)N2CCN(c3nc(C)cc(N4CCCC4)n3)CC2)cc1 | inactive
c1cncc(-c2noc(C3CCCN(Cc4cc5n(n4)CCCNC5)C3)n2)c1 (stereo not given) | inconclusive: 17%
Cc1nc2c(C(=O)NCCN3CCOCC3)c[nH]n2c(=O)c1Cc1ccc(F)cc1 | inactive
Cc1ccc(-c2cn[nH]c2C2CCCN(C(=O)C(=O)c3ccco3)C2)cc1 (stereo not given) | inconclusive: 21%
N#Cc1c(C(F)(F)F)cc(NCCN2CCOCC2)n2c1nc1ccccc12 | active: 34%
CN(C)c1ncccc1CNC(=O)c1cccc2cccnc12 | inconclusive: 10%
COCC(Cc1ccc(OC)c(OC)c1)C(COC)Cc1cc(OC)c2c(c1)OCO2 (stereo not given) | inconclusive: 14%
CCc1c(C#N)c(SC)nc(C)c1C(=O)Nc1ccccc1 | inconclusive: 18%
NC(=O)c1cc2c(nc1-c1cccc3[nH]ccc13)CCC2 | inconclusive: 18%
CC(NC(=O)C(=O)NCc1cccs1)c1ccccc1 (stereo not given) | inconclusive: 21%
COc1ccc(-c2nc(N3CCCCC3)nc3nn4c(C)cc(C)nc4c23)cc1 | inconclusive: 16%

Structures above that have fluorine, in the order listed:
SMILES | inhibition
CC1CN(Cc2nc3c(c(=O)[nH]c(=O)n3C)n2Cc2c(F)cccc2Cl)CC(C)O1 (stereo not given) | inconclusive: 11%
Cc1nn(CCO)cc1CN1CCC1c1ccc(F)cc1 (stereo not given) | inconclusive: 15%
O=c1c2c(nc(SCc3ccccc3)n1-c1ccc(F)cc1)CCS2 | inconclusive: 10%
Cc1nc2sc(C(c3ccccc3)N3CCN(c4ccc(F)cc4)CC3)c(O)n2n1 (stereo not given) | inconclusive: 10%
CC(C)(C)c1ccnc(N[C@H]2CO[C@H]3[C@@H]2OC[C@@H]3NC(=O)Nc2cccc(C(F)(F)F)c2)n1 | inconclusive: 11%
Cc1ccccc1S(=O)(=O)N1CCN(c2cc(-c3cccc(F)c3)ncn2)CC1 | inactive
COc1ccc(-c2noc([C@@H]3C[C@H](NS(=O)(=O)c4ccc(F)cc4)CN3C)n2)cc1 | inconclusive: 12%
Cc1ccc([C@@H]2Nc3c(F)cccc3[C@@H]3C=CC[C@@H]32)cc1 | inactive
CC(C)(C)n1nc2c(c1NC(=O)c1ccccc1F)CSC2 | inconclusive: 10%
COc1ccccc1-c1nnc([C@H]2CCN(Cc3ccc(F)c(F)c3)C2)o1 | inconclusive: 13%
Cc1[nH]c2ccccc2c1C(C[N+](=O)[O-])c1ccc(F)cc1 (stereo not given) | inconclusive: 24%
Cc1nc2c(C(=O)NCCN3CCOCC3)c[nH]n2c(=O)c1Cc1ccc(F)cc1 | inactive
N#Cc1c(C(F)(F)F)cc(NCCN2CCOCC2)n2c1nc1ccccc12 | active: 34%

Molecules shown so far that have a thiophene ring, fused or not, in the order listed:
SMILES | inhibition
COc1ccc(-c2noc([C@@H]3C[C@H](NS(=O)(=O)c4cccs4)CN3C)n2)cc1 | active: 41%
CC(NC(=O)C(=O)NCc1cccs1)c1ccccc1 (stereo not given) | inconclusive: 21%
